# Assay results

Data taken from PubChem BioAssay AID504749, deposited by NCATS (2011).

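Malaria parasite (P. falciparum) lines kept in red blood cells; parasite DNA is measured by SYBR Green fluorescence after lysis, 72 h after compound addition. Each compound was titrated across a series from about 0.000037 to 29 µM. The number is the fitted AC50, the concentration giving a half-maximal change in signal; a lower value means higher potency, whether the curve shows a decrease or an increase. Calls follow the curve class and fit quality: every row here is inconclusive, covering signal-raising curves and weak, poorly fitted, partial or highest-dose-only inhibition curves.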

Values are in µM. All entries here are filed as inconclusive. These entries are mostly ones the record files as inconclusive; other results of the assay are not listed here. Potencies fitted to partial, single-point or poorly fitting curves are rough. The first word of each remark tells which way the curve ran; it can be opposite to the aim of the assay.

compound,tested on / at,fitted potency (µM),curve
COC1=CC(=O)C[C@@H](C)[C@]12Oc1c(Cl)c(OC)cc(OC)c1C2=O,DIV14,19.01,"inhibitor, single point"
O=P1(NCCCl)OCCCN1CCCl (centres undefined),CP203,0.0041,"activator, full curve, poor fit"
O=P1(NCCCl)OCCCN1CCCl (centres undefined),JCK,10,"activator, single point"
O=P1(NCCCl)OCCCN1CCCl (centres undefined),W2,0.6424,"inhibitor, partial curve, poor fit"
c1ccc2[nH]c(-c3cscn3)nc2c1,CP247,12.59,"inhibitor, single point"
c1ccc2[nH]c(-c3cscn3)nc2c1,ATS189,17.78,"inhibitor, single point"
c1ccc2[nH]c(-c3cscn3)nc2c1,PC26,21.33,"inhibitor, partial curve, poor fit"
c1ccc2[nH]c(-c3cscn3)nc2c1,CP185,17.78,"inhibitor, single point"
c1ccc2[nH]c(-c3cscn3)nc2c1,CP250,17.78,"inhibitor, single point"
c1ccc2[nH]c(-c3cscn3)nc2c1,CP297,0.0135,"inhibitor, full curve, poor fit"
CCCCCCCCCCCCCCCC[N+](C)(C)Cc1ccccc1,CP203,13.46,"inhibitor, single point"
CCCCCCCCCCCCCCCC[N+](C)(C)Cc1ccccc1,Dd2,10,"inhibitor, single point"
CCCCCCCCCCCCCCCC[N+](C)(C)Cc1ccccc1,JCK,15.85,"inhibitor, single point"
CCCCCCCCCCCCCCCC[N+](C)(C)Cc1ccccc1,CP315,19.01,"inhibitor, single point"
CCCCCCCCCCCCCCCC[N+](C)(C)Cc1ccccc1,CP305,13.46,"inhibitor, single point"
CCCCCCCCCCCCCCCC[N+](C)(C)Cc1ccccc1,HB3,11.22,"inhibitor, single point"
NS(=O)(=O)c1cc(C(=O)O)cc(N2CCCC2)c1Oc1ccccc1,CP203,0.002,"activator, full curve, poor fit"
CCc1ccc(C(=O)C(C)CN2CCCCC2)cc1 (centres undefined),P93_24,12.59,"inhibitor, single point"
CCc1ccc(C(=O)C(C)CN2CCCCC2)cc1 (centres undefined),CP260,10,"inhibitor, single point"
CCc1ccc(C(=O)C(C)CN2CCCCC2)cc1 (centres undefined),DIV17,19.01,"inhibitor, partial curve, poor fit"
COC(C(=O)C(O)C(C)O)C1Cc2cc3cc(OC4CC(OC5CC(O)C(O)C(C)O5)C(O)C(C)O4)c(C)c(O)c3c(O)c2C(=O)C1OC1CC(OC2CC(OC3CC(C)(O)C(O)C(C)O3)C(O)C(C)O2)C(O)C(C)O1 (centres undefined),CP247,0.2512,activator
COC(C(=O)C(O)C(C)O)C1Cc2cc3cc(OC4CC(OC5CC(O)C(O)C(C)O5)C(O)C(C)O4)c(C)c(O)c3c(O)c2C(=O)C1OC1CC(OC2CC(OC3CC(C)(O)C(O)C(C)O3)C(O)C(C)O2)C(O)C(C)O1 (centres undefined),JCK,0.0158,"inhibitor, full curve, poor fit"
N/C(=N\N=C\c1ccc(Cl)cc1)N/N=C/c1ccc(Cl)cc1,CP238,15.85,"inhibitor, single point"
N/C(=N\N=C\c1ccc(Cl)cc1)N/N=C/c1ccc(Cl)cc1,CP252,17.78,"inhibitor, single point"
N/C(=N\N=C\c1ccc(Cl)cc1)N/N=C/c1ccc(Cl)cc1,FAB9,14.13,"inhibitor, single point"
N/C(=N\N=C\c1ccc(Cl)cc1)N/N=C/c1ccc(Cl)cc1,TAB113,17.78,"inhibitor, single point"
Cn1c(=O)c2c(ncn2C[C@@H](O)CO)n(C)c1=O,CP191,31.62,"inhibitor, partial curve, poor fit"
CCC1(c2ccccc2)CCC(=O)NC1=O (centres undefined),GB4,15.1,"inhibitor, single point"
CCC1(c2ccccc2)CCC(=O)NC1=O (centres undefined),P93_24,17.78,"inhibitor, single point"

3 of the entries, repeated:

| compound | tested on / at | fitted potency (µM) | curve |
|---|---|---|---|
| `c1ccc2[nH]c(-c3cscn3)nc2c1` | CP250 | 17.78 | inhibitor, single point |
| `CCCCCCCCCCCCCCCC[N+](C)(C)Cc1ccccc1` | HB3 | 11.22 | inhibitor, single point |
| `N/C(=N\N=C\c1ccc(Cl)cc1)N/N=C/c1ccc(Cl)cc1` | TAB113 | 17.78 | inhibitor, single point |